# Among all 1,000 compounds or so, fewer than 10 were called active.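 Rule for the calls: active = fitted half-maximal concentration no higher than twice the top valid tested dose, with signal falling; inconclusive = flat curve with 30 to 70% inhibition, or poor fit; inactive = the rest.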 The list shows a part of the results. Measured potencies and affinities stand elsewhere.
# Target: Golgi-associated PDZ and coiled-coil motif-containing protein (Homo sapiens) (UniProt Q9HD26)
# Assay: CAL PDZ domain peptide-binding inhibitors, dose response, biochemical, fluorescence polarization, untagged CAL PDZ, cherry-pick, set 2 (AID 602254);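 note: 0% = DMSO neutral control and -100% = unlabeled peptide PRC23 positive control; more negative means stronger blocking of peptide binding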
# Conditions: Purified CAL PDZ, TMR peptide fluorescence polarization; at 60 µM (top of the series)
row,Compound,"activity change, negative = inhibition"
1,CCOc1ccc(NC(=O)CCN2CCN(S(=O)(=O)c3ccc(F)cc3)CC2)cc1,inactive: -0.08%
2,Fc1ccc(Cn2nnc3ccccc32)cc1,inactive: 1.58%
3,COc1ccc2[nH]c(=O)c(CN(C(=O)C3CCCO3)c3ccc(C)c(C)c3)cc2c1 (centres undefined),inactive: 1.97%
4,CCC1CCC2(CC1)NC(=O)N(CC(=O)Nc1ccc(OC)c(Cl)c1)C2=O (centres undefined),inactive: -11%
5,CCC(C)NC(=S)Nc1ccccc1 (centres undefined),inactive: 1.51%
6,Cc1ccc(OCC(=O)Nc2ccc(C(=O)O)cc2NC(=O)COc2ccc(C)c(C)c2)cc1C,inactive: 3.68%
7,O=C(C1CC(=O)N(c2ccc3c(c2)OCCO3)C1)N1CCN(S(=O)(=O)c2ccc(F)cc2)CC1 (centres undefined),inactive: -2.13%
8,Cc1onc(-c2c(Cl)cccc2Cl)c1C(=O)N1CCN(c2ncccn2)CC1,inactive: 2.53%
9,CCN(CC)CCNC(=O)C(=O)Nc1ccc(C(=O)OC)cc1,inactive: 0.084%
10,CCN(c1ccccc1)S(=O)(=O)c1ccc(C(=O)N2CCN(c3ccccc3)CC2)cc1,inactive: -4.12%
11,CN(Cc1cnccn1)Cc1nc(Cc2ccccc2F)no1,inactive: 0.187%
12,O=S(=O)(NC1CCCC1)c1ccc(-n2cnnn2)cc1,inactive: 0.658%
13,Brc1ccc(-n2cnc(-c3ccccc3)c2)cc1,inactive: -2.22%
14,CCN1C(=O)c2ccc(C(=O)Nc3ncc(C)s3)cc2C1=O,inactive: -0.423%
15,N#CCCN(Cc1ccccc1)S(=O)(=O)c1cccs1,inactive: -4.2%
16,Cc1nnsc1C(=O)Nc1cccc(Cl)c1,inactive: 1.76%
17,Cc1cc(CNC(=O)C2CCC(=O)N(CCc3ccc(Cl)cc3)C2)no1 (centres undefined),inactive: 1.48%
18,COC(=O)c1sccc1NC(=O)CC1NCCNC1=O (centres undefined),inactive: 5.3%
19,Cc1ccc(S(=O)(=O)Nc2cccc(-n3cnnn3)c2)cc1,inactive: 1.15%
20,CC(C)CNC(=O)c1cccc(NC(=O)c2ccccc2-c2ccccc2C(=O)O)c1,inactive: 7.77%
21,O=C(N[C@@H](Cc1c[nH]c2ccccc12)C(=O)O)C1CCN(S(=O)(=O)c2cccs2)CC1,inactive: -1.24%
22,COc1cc(OC)cc(C(=O)OC(C)C(=O)NC2CCCc3ccccc32)c1 (centres undefined),inactive: -0.23%
23,O=C(CCCN1C(=O)/C(=C\c2ccccc2)SC1=S)Nc1ccc(O)cc1C(=O)O,inactive: 4.36%
24,Cc1cc(F)ccc1NC(=O)CCc1c(C)nn(-c2ccc(N3CCCCC3)nn2)c1C,inactive: 1.15%

row,Compound,"activity change, negative = inhibition"
1,CC(C)Nc1cc(C(C)(C)C)nc2c(-c3ccccc3)cnn12,inactive: -5.56%
2,COc1ccc(Br)cc1CNc1ccc2[nH]c(=O)[nH]c2c1,inactive: -3.88%
3,Cc1cccc(OCCCn2c(CO)nc3ccccc32)c1,inactive: 1.72%
4,O=C(Nc1ccccc1F)c1ccc(CN2CCc3ccccc3C2)cc1,inactive: -0.957%
5,Cc1cc(=O)oc2cc(OCC(=O)Nc3nnc(C4CC4)s3)ccc12,inactive: 3.11%
6,COc1ccc(/C=C/CN2CCCC(CO)(Cc3cccc(Cl)c3)C2)cc1 (centres undefined),inactive: 2.42%
7,Cc1ccc(CSc2ccc(S(=O)(=O)N3CCCC3)cn2)cc1,inactive: -3.58%
8,O=C(NNC(=O)c1ccc[nH]1)Nc1cccc(C(F)(F)F)c1,inactive: -0.191%
9,Cc1cc(OCC(=O)NCc2ccccn2)c2c(C)cc(=O)oc2c1,inactive: -0.153%
10,COc1ccc(NC2CCCN(C(=O)c3csc(C(C)C)n3)C2)cc1 (centres undefined),inactive: -1.33%
11,O=C1OC(CO)CN1Cc1ccccc1 (centres undefined),inactive: -3.64%
12,CCc1noc(C)c1C(=O)N1CCN(S(=O)(=O)c2cccs2)CC1,inactive: -1.19%
13,Cc1ccc(S(=O)(=O)NCCC(=O)NC(C)CCc2ccccc2)cc1 (centres undefined),inactive: 1.68%
14,Cc1cccc(N(CC(=O)NCc2ccc3c(c2)OCO3)C(=O)CCC(=O)Nc2ccccn2)c1C,inactive: 6.57%
15,COc1ccccc1C(=O)Nc1ccc2c(c1)nc(CN1CCCCC1)n2C,inactive: 3.14%
16,CCCCCCC(=O)Oc1cccc(N2C(=O)C3CCCCC3C2=O)c1 (centres undefined),inactive: 2.95%
17,COc1ccc(C(C)NC(=O)c2ccncc2)cc1OC (centres undefined),inactive: 3.67%
18,CCOC(=O)c1cnc2nc(C(F)(F)F)[nH]n2c1=O,inactive: 2.92%
19,NC(=O)CC1C(=O)N(c2ccc(Cl)cc2)C(=S)N1NC(=O)c1cccc(F)c1 (centres undefined),inactive: -2.21%
20,N#CCc1ccc(OC(=O)Nc2ccccc2)cc1,inactive: 2.23%
21,CN(C)CCCCOc1ccc(Br)cc1Cl,inactive: 1.37%
22,COc1cccc(-c2nn(-c3ccc(C)cc3)cc2C(=O)N(C)CC(=O)Nc2cccc(F)c2)c1,inactive: 0.312%
23,O=C(COC(=O)Cc1c(F)cccc1Cl)NC(=O)c1ccccc1,inactive: -4.75%
24,COC(=O)c1ccc(NC(=O)CN2C(=O)NC3(CCC(C)CC3)C2=O)cc1 (centres undefined),inactive: 0.218%

row,Compound,"activity change, negative = inhibition"
1,c1ccc(CN2CCCC3(CCCN(Cc4nc(COc5ccccc5)no4)C3)C2)cc1 (centres undefined),inactive: -0.026%
2,CCN(Cc1cnn(C)c1)C(=O)C1CCC(=O)N(CCc2ccc(OC)cc2)C1 (centres undefined),inactive: 0.165%
3,Cc1ccc(C)c(NC(=S)NCCN(C2CCCCC2)C2CCCC2)c1,inactive: 1.16%
4,Cc1onc(-c2ccc(Cl)cc2Cl)c1-c1csc(N/N=C/c2ccccc2)n1,inactive: -10.3%
5,Cc1ccc(NC(=S)NC2CCN(Cc3ccccc3)CC2)cc1C,inactive: -0.836%
6,O=C(Nc1ccc(F)cc1)c1cc(-c2ccccc2)no1,inactive: -2.38%
7,Cc1nn(-c2ccccc2)c(C)c1NC(=O)COC(=O)c1ccc(Cl)c(S(N)(=O)=O)c1,inactive: 3.11%
8,CC(=O)N1c2ccc(S(=O)(=O)N3CCC(C(=O)Nc4cc(C)ccn4)CC3)cc2CC1C (centres undefined),inactive: 2.78%
9,O=C(CN1CCN(CC(=O)Nc2cccc(F)c2)CC1)Nc1ccc(-c2ccccc2)cc1,inactive: -1.28%
10,COc1ccc(NC(C)=O)cc1NC(=O)C1CCCN1C(=O)c1cccs1 (centres undefined),inactive: 0.79%
11,Cc1ccc(S(=O)(=O)N(C)CC(=O)NCCCn2nc(C)cc2C)cc1,inactive: -1.11%
12,CC(=O)N1c2ccc(S(=O)(=O)N3CCC(C(=O)NC4CCCCC4)CC3)cc2CC1C (centres undefined),inactive: -0.953%
13,NC(=O)c1c(NC(=O)c2ccccc2F)sc2c1CCCC2,inactive: 0.485%
14,CSc1cccc(NC(=S)NN(C)C)c1,inactive: 6.39%
15,Cn1c(C(=O)N2CCN(c3ccccc3)CC2)cc2cc(Cl)ccc21,inactive: -1.02%
16,CC(=O)c1cccc(NC(=O)c2cccc3ccccc23)c1,inactive: 5.97%
17,CN(C)c1ccc(/C=N\Nc2nc(-c3ccccc3)cc(=O)[nH]2)cc1,inactive: -6.31%
18,CN(CC(=O)Nc1cc(Cl)ccc1C#N)C1CCS(=O)(=O)C1 (centres undefined),inactive: 2.32%
19,CN(CC(=O)Nc1ccccc1Cl)C(=O)CN1C(=O)NC(c2ccccc2)(c2ccccc2)C1=O,inactive: 1.72%
20,CC1CN(C(=O)c2cccc(S(=O)(=O)Nc3cc(Cl)ccc3Cl)c2)CC(C)O1 (centres undefined),inactive: -3.54%
21,O=C(COC(=O)c1ccc2c(c1)OCO2)NCc1ccc(Cl)cc1,inactive: 0.258%
22,CN(Cc1ccccc1)S(=O)(=O)c1ccc(N2CCOCC2)nc1,inactive: -1.75%
23,O=C(c1ccc(S(=O)(=O)N2CCCCCC2)cc1)N1CCN(c2ccccc2)CC1,inactive: -2.65%
24,COc1ccc(OCC(O)CNC(=O)c2ccc(Br)cc2)cc1 (centres undefined),inactive: 0.664%

row,Compound,"activity change, negative = inhibition"
1,COc1ccc(CN2CCNC(=O)C2CC(=O)N(C)CCC2CCOCC2)cc1OC (centres undefined),inactive: -1.69%
2,CCOC(=O)c1c(NC(=O)CN2CCC(C)CC2)sc(C)c1C,inactive: 2.58%
3,COc1ccc(NC(=O)Oc2cc(C)ccc2C(C)C)cc1,inactive: -0.959%
4,Cc1noc(NS(=O)(=O)c2ccc(NC(=O)c3ccc(N(C)C)cc3)cc2)c1C,inactive: -0.732%
5,Cc1nnsc1C(=O)NC1CCCc2c1cnn2-c1ccc(C(C)(C)C)cc1 (centres undefined),inactive: 0.328%
6,O=C(NCc1ccccc1)c1ncn[nH]1,inactive: -7.09%
7,Cc1ccc(S(=O)(=O)N2CCOCC2)cc1C(=O)N1CCN(c2ncccn2)CC1,inactive: 0.348%
8,O=C(NCc1cccs1)c1ccncc1,inactive: 1.91%
9,COc1cc(/C=N/N2C(=O)CSC2=S)cc(Br)c1O,inactive: 89.3%
10,CN(C(=O)c1cccc(C(F)(F)F)c1)C1CCCc2ccccc21 (centres undefined),inactive: -1.53%
11,Cc1ccc(S(=O)(=O)N(C)C)cc1NC(=S)N1CCc2ccccc21,inactive: 0.484%
12,CCOC(=O)N1CCN(C(=O)CNCc2cccs2)CC1,inactive: -0.231%
13,Cc1ccc(C(C)C)cc1OCCn1cncn1,inactive: -1.32%
14,COc1ccccc1C(=O)Oc1ccccc1C(=O)Nc1ccccc1,inactive: -11.9%
15,CC1CCC(C(C)C)C(OCC(O)CNC(C)(C)C)C1 (centres undefined),inactive: -1.66%
16,O=C(NCc1cccc(Cl)c1)C1CCC(=O)N(CCCN2CCCC2=O)C1 (centres undefined),inactive: 0.114%
17,N#Cc1ccc(NC(=O)NN2CCCCCC2)cc1,inactive: 2.36%
18,CCCCN1C[C@H](COC(=O)CCC)Oc2cccc(F)c2S1(=O)=O,inactive: -0.292%
19,CCOc1ccc2cc(S(=O)(=O)N3CCCCC3)ccc2c1,inactive: -3.02%
20,COC(=O)C(CC(=O)c1ccc(C)cc1)n1nc(C)cc1C (centres undefined),inactive: 1.03%
21,CCN(CC)S(=O)(=O)c1ccc(N2CC(C(=O)NCCC3=CCCCC3)CC2=O)cc1 (centres undefined),inactive: -5.04%
22,O=C(c1ccccc1)c1ccccc1NC(=O)C1CCCN1Cc1ccccc1 (centres undefined),inactive: -3.61%

# Reformatted tab-delimited: entries from further up.
row	Compound	activity change, negative = inhibition
8	O=C(NCc1cccs1)c1ccncc1	inactive: 1.91%
9	COc1cc(/C=N/N2C(=O)CSC2=S)cc(Br)c1O	inactive: 89.3%
10	CN(C(=O)c1cccc(C(F)(F)F)c1)C1CCCc2ccccc21 (centres undefined)	inactive: -1.53%
11	Cc1ccc(S(=O)(=O)N(C)C)cc1NC(=S)N1CCc2ccccc21	inactive: 0.484%
12	CCOC(=O)N1CCN(C(=O)CNCc2cccs2)CC1	inactive: -0.231%
